Experimental data from patent US20060035838A1 (The Board of Trustees of the Leland Stanford Junior …, priority 2002, published 2006).

Experiments:
[1] = Fmoc solid-phase peptide synthesis; details: whole synthesis, scale 25 μmol
[2] = general procedure: Fmoc solid-phase peptide synthesis; details: whole synthesis, scale 25 μmol

Pro-Gln-Pro-Aci-Leu-Pro-Tyr
isolated yield [1]: 14%
isolated mass [2]: 4 OD275 (3.4 μmol
